Some of these results come from one statement about several compounds together.
system: PPARα, PPARγ, or PPARδ; test: PPAR activity assays (biochemical and cell based); conditions: at least one of the assays, for at least one of PPARα

EC50, ≤ 1000 nM:
CC(C)Cn1cc(-c2cccc(S(=O)(=O)n3cc(CCC(=O)O)c4cc(F)ccc43)c2)cn1 [Compound P-0042, 3-{5-Fluoro-1-[3-(1-isobutyl-1H-pyrazol-4-yl)-benzenesulfonyl]-1H-indol-3-yl}-propionic acid]
O=C(O)CCc1cn(S(=O)(=O)c2cccc(-c3ccc(Cl)cc3F)c2)c2ccc(F)cc12 [Compound P-0044, 3-[1-(4′-Chloro-2′-fluoro-biphenyl-3-sulfonyl)-5-fluoro-1H-indol-3-yl]-propionic acid]
COc1ccc2c(c1)c(CCC(=O)O)cn2S(=O)(=O)c1cccc(-c2cccc(Cl)c2)c1 [Compound P-0045, 3-[1-(3′-Chloro-biphenyl-3-sulfonyl)-5-methoxy-1H-indol-3-yl]-propionic acid]
COc1ccc2c(c1)c(CCC(=O)O)cn2S(=O)(=O)c1cccc(-c2ccc(Cl)cc2)c1 [Compound P-0046, 3-[1-(4′-Chloro-biphenyl-3-sulfonyl)-5-methoxy-1H-indol-3-yl]-propionic acid]
COc1ccc(-c2cccc(S(=O)(=O)n3cc(CCC(=O)O)c4cc(OC)ccc43)c2)cc1 [Compound P-0047, 3-[5-Methoxy-1-(4′-methoxy-biphenyl-3-sulfonyl)-1H-indol-3-yl]-propionic acid]
COc1ccc2c(c1)c(CCC(=O)O)cn2S(=O)(=O)c1cccc(-c2ccc(F)cc2)c1 [Compound P-0048, 3-[1-(4′-Fluoro-biphenyl-3-sulfonyl)-5-methoxy-1H-indol-3-yl]-propionic acid]
COc1ccc2c(c1)c(CCC(=O)O)cn2S(=O)(=O)c1cccc(-c2ccc(F)cc2F)c1 [Compound P-0049, 3-[1-(2′,4′-Difluoro-biphenyl-3-sulfonyl)-5-methoxy-1H-indol-3-yl]-propionic acid]
COc1ccc2c(c1)c(CCC(=O)O)cn2S(=O)(=O)c1cccc(-c2ccc(F)c(Cl)c2)c1 [Compound P-0050, 3-[1-(3′-Chloro-4′-fluoro-biphenyl-3-sulfonyl)-5-methoxy-1H-indol-3-yl]-propionic acid]
CCOc1ccc(-c2cccc(S(=O)(=O)n3cc(CCC(=O)O)c4cc(OC)ccc43)c2)cc1 [Compound P-0051, 3-[1-(4′-Ethoxy-biphenyl-3-sulfonyl)-5-methoxy-1H-indol-3-yl]-propionic acid]
COc1ccc2c(c1)c(CCC(=O)O)cn2S(=O)(=O)c1cccc(-c2cccc(F)c2)c1 [Compound P-0052, 3-[1-(3′-Fluoro-biphenyl-3-sulfonyl)-5-methoxy-1H-indol-3-yl]-propionic acid]
COc1ccc2c(c1)c(CCC(=O)O)cn2S(=O)(=O)c1cccc(-c2ccccc2F)c1 [Compound P-0053, 3-[1-(2′-Fluoro-biphenyl-3-sulfonyl)-5-methoxy-1-indol-3-yl]-propionic acid]
COc1ccc2c(c1)c(CCC(=O)O)cn2S(=O)(=O)c1cccc(-c2cccc(OC(F)(F)F)c2)c1 [Compound P-0054, 3-[5N-Methoxy-1-(3′-trifluoromethoxy-biphenyl-3-sulfonyl)-1H-indol-3-yl]-propionic acid]
COc1ccc2c(c1)c(CCC(=O)O)cn2S(=O)(=O)c1cccc(-c2ccc(OC(F)(F)F)cc2)c1 [Compound P-0055, 3-[5-Methoxy-1-(4′-trifluoromethoxy-biphenyl-3-sulfonyl)-1H-indol-3-yl]-propionic acid]
COc1ccc2c(c1)c(CCC(=O)O)cn2S(=O)(=O)c1cccc(-c2cccc(C(F)(F)F)c2)c1 [Compound P-0056, 3-[5-Methoxy-1-(3′-trifluoromethyl-biphenyl-3-sulfonyl)-1H-indol-3-yl]-propionic acid]
COc1ccc2c(c1)c(CCC(=O)O)cn2S(=O)(=O)c1cccc(-c2ccc(OCc3ccccc3)cc2F)c1 [Compound P-0057, 3-[1-(4′-Benzyloxy-2-fluoro-biphenyl-3-sulfonyl)-5-methoxy-1H-indol-3-yl]-propionic acid]
